Laboratory results as given in the supplement of paper PMC4604168 (melanoma cell lines).
The list shows a part of the results. Single values are uncertain, as repeats are few or missing.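 Cells were imaged in 1,536-well plates, and nuclei stained with an antibody against cleaved PARP were counted against all DNA-stained nuclei to give the apoptosis fraction. Screening doses were chosen to leave most cells alive, and resting and induced cleaved-PARP levels differ strongly between cell lines.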

Legend:
Assay in all cases: cleaved PARP positive nuclei fraction relative to DMSO control; melanoma cells; higher = more apoptosis
Conditions in all cases: library dose: low library concentration; 72 h
[1] = test system: MZ2-MEL
[2] = test system: MeWo
[3] = test system: RPMI7951
[4] = test system: RVH-421
[5] = test system: SkMel28
[6] = test system: SkMel2
[7] = test system: SkMel30
[8] = test system: UACC62
[9] = test system: WM115
[10] = test system: WM1716
[11] = test system: WM1745
[12] = test system: WM3526
[13] = test system: WM3619
[14] = test system: WM451Lu

Structure (SMILES) | cleaved PARP positive nuclei fraction [1] | cleaved PARP positive nuclei fraction [2] | cleaved PARP positive nuclei fraction [3] | cleaved PARP positive nuclei fraction [4] | cleaved PARP positive nuclei fraction [5] | cleaved PARP positive nuclei fraction [6] | cleaved PARP positive nuclei fraction [7] | cleaved PARP positive nuclei fraction [8] | cleaved PARP positive nuclei fraction [9] | cleaved PARP positive nuclei fraction [10] | cleaved PARP positive nuclei fraction [11] | cleaved PARP positive nuclei fraction [12] | cleaved PARP positive nuclei fraction [13] | cleaved PARP positive nuclei fraction [14]
Cc1cc(Nc2cc(N3CCN(C)CC3)nc(/C=C/c3ccccc3)n2)n[nH]1 + OCc1c[nH]c2ccccc12 [Indole-3-carbinol] (first compound 0.04 µM, partner dose 0.8 µM) | 48.1% | 153% | 85.2% | 101% | 21.6% | 82.5% | 39.8% | 123% | 148% | 90.2% | 98.3% | 33.6% | 104% | 47.4%
C=C(c1ccc(C(=O)O)cc1)c1cc2c(cc1C)C(C)(C)CCC2(C)C [Bexarotene] + C=CCNC1=C2C[C@@H](C)C[C@H](OC)[C@H](O)[C@@H](C)/C=C(\C)[C@H](OC(N)=O)[C@@H](OC)/C=C\C=C(/C)C(=O)NC(=CC1=O)C2=O [Tanespimycin] (first compound 2 µM, partner dose 0.002 µM) | 145% | 49.9% | 57.1% | 251% | 103% | 157% | 139% | 46.7% | 70.3% | 35.3% | 89.9% | 50.6% | 76.3% | 75.6%
CS(=O)(=O)CCNCc1ccc(-c2ccc3ncnc(Nc4ccc(OCc5cccc(F)c5)c(Cl)c4)c3c2)o1 [lapatinib] + OCc1c[nH]c2ccccc12 [Indole-3-carbinol] (first compound 0.8 µM, partner dose 0.8 µM) | 92.6% | 109% | 95.2% | 141% | 56.2% | 57.8% | 95.9% | 98.5% | 136% | 78.4% | 93% | 89.4% | 215% | 50.1%
CC(C)C[C@H](NC(=O)[C@H](Cc1ccccc1)NC(=O)c1cnccn1)B(O)O [Bortezomib] + Cn1nnc2c(C(N)=O)ncn2c1=O [temozolomide] (first compound 0.001 µM, partner dose 2 µM) | 298% | 56.6% | 101% | 240% | 62.8% | 75.6% | 299% | 212% | 47.9% | 937% | 560% | 50% | 990% | 116%
CN1CCN(c2ccc3nc(-c4c(N)c5c(F)cccc5[nH]c4=O)[nH]c3c2)CC1 [Dovitinib] + C=C(c1ccc(C(=O)O)cc1)c1cc2c(cc1C)C(C)(C)CCC2(C)C [Bexarotene] (first compound 0.1 µM, partner dose 2 µM) | 196% | 102% | 122% | 119% | 120% | 52% | 256% | 33% | 182% | 516% | 120% | 338% | 105% | 71.1%
CS(=O)(=O)CCNCc1ccc(-c2ccc3ncnc(Nc4ccc(OCc5cccc(F)c5)c(Cl)c4)c3c2)o1 [lapatinib] + Cn1nnc2c(C(N)=O)ncn2c1=O [temozolomide] (first compound 0.8 µM, partner dose 2 µM) | 53.4% | 452% | 80.7% | 99.2% | 86.3% | 83.2% | 98.6% | 242% | 133% | 590% | 97% | 88.5% | 80.1% | 88.9%
CN1CCN(c2ccc3nc(-c4c(N)c5c(F)cccc5[nH]c4=O)[nH]c3c2)CC1 [Dovitinib] + OCc1c[nH]c2ccccc12 [Indole-3-carbinol] (first compound 0.1 µM, partner dose 0.8 µM) | 70.3% | 135% | 59.4% | 73.7% | 41.6% | 94.9% | 161% | 65.6% | 108% | 149% | 112% | 52.3% | 79.7% | 30.8%
Cc1cc(Nc2cc(N3CCN(C)CC3)nc(/C=C/c3ccccc3)n2)n[nH]1 + NC1(c2ccc(-c3nc4ccn5c(=O)[nH]nc5c4cc3-c3ccccc3)cc2)CCC1 [MK2206] (first compound 0.04 µM, partner dose 0.4 µM) | 74.7% | 57.1% | 164% | 145% | 154% | 55.5% | 58.3% | 158% | 139% | 46.9% | 120% | 28.5% | 105% | 149%
C[C@@H](Oc1cc(-c2cnn(C3CCNCC3)c2)cnc1N)c1c(Cl)ccc(F)c1Cl [Crizotinib] + CN1CCN(c2ccc3nc(-c4c(N)c5c(F)cccc5[nH]c4=O)[nH]c3c2)CC1 [Dovitinib] (first compound 0.2 µM, partner dose 0.1 µM) | 100% | 41.9% | 88.5% | 177% | 85.2% | 64.6% | 60% | 172% | 152% | 56.2% | 95.7% | 78.1% | 75.9% | 87.8%
Nc1ccn([C@@H]2O[C@H](CO)[C@@H](O)C2(F)F)c(=O)n1 [gemcitabine] + Cn1c(Nc2ccc(C(F)(F)F)cc2)nc2cc(Oc3ccnc(-c4ncc(C(F)(F)F)[nH]4)c3)ccc21 [CHIR265] (first compound 0.0004 µM, partner dose 0.08 µM) | 104% | 169% | 313% | 118% | 184% | 124% | 215% | 288% | 299% | 194% | 133% | 57.8% | 296% | 151%
CCCS(=O)(=O)Nc1ccc(F)c(C(=O)c2c[nH]c3ncc(Cl)cc23)c1F + COCC[n+]1c2c(n(Cc3cnccn3)c1C)C(=O)c1ccccc1C2=O [YM155] (first compound 0.08 µM, partner dose 0.0004 µM) | 57.5% | 101% | 136% | 112% | 156% | 92.4% | 81.1% | 556% | 101% | 28.7% | 119% | 186% | 118% | 120%
Cc1cc(Nc2cc(N3CCN(C)CC3)nc(/C=C/c3ccccc3)n2)n[nH]1 + Nc1ccn([C@@H]2O[C@H](CO)[C@@H](O)C2(F)F)c(=O)n1 [gemcitabine] (first compound 0.04 µM, partner dose 0.0004 µM) | 61.9% | 79.8% | 94.6% | 77.5% | 78.3% | 99.3% | 147% | 176% | 87% | 122% | 107% | 27% | 124% | 40.4%
O=C(O)[C@@H]1[O][Sb](=[O])([O][Sb]2(=[O])[O][C@H]([C@H](O)CO)[C@H](O)[C@H](C(=O)O)[O]2)[O][C@H]([C@H](O)CO)[C@@H]1O (stereo partly specified) [stibogluconate] + Cn1c(Nc2ccc(C(F)(F)F)cc2)nc2cc(Oc3ccnc(-c4ncc(C(F)(F)F)[nH]4)c3)ccc21 [CHIR265] (first compound 2 µM, partner dose 0.08 µM) | 67% | 1230% | 53.3% | 125% | 105% | 67.9% | 149% | 123% | 286% | 632% | 119% | 176% | 100% | 99.5%
CNC(=O)c1cc(Oc2ccc(NC(=O)Nc3ccc(Cl)c(C(F)(F)F)c3)cc2)ccn1 [sorafenib] + Cc1nc(Nc2ncc(C(=O)Nc3c(C)cccc3Cl)s2)cc(N2CCN(CCO)CC2)n1 [dasatanib] (first compound 0.4 µM, partner dose 0.004 µM) | 132% | 91.9% | 37.1% | 117% | 115% | 68.6% | 84.1% | 58.4% | 164% | 46.2% | 266% | 40.2% | 98.3% | 109%
CC(C)C[C@H](NC(=O)[C@H](Cc1ccccc1)NC(=O)c1cnccn1)B(O)O [Bortezomib] + CC(=O)c1c(C)c2cnc(Nc3ccc(N4CCNCC4)cn3)nc2n(C2CCCC2)c1=O [palbociclib] (first compound 0.001 µM, partner dose 0.04 µM) | 291% | 71.8% | 195% | 512% | 95% | 16.9% | 996% | 270% | 121% | 476% | 158% | 84.4% | 534% | 125%
C=C(c1ccc(C(=O)O)cc1)c1cc2c(cc1C)C(C)(C)CCC2(C)C [Bexarotene] + C[C@]1(c2nc3c(C(N)=O)cccc3[nH]2)CCCN1 [Veliparib] (first compound 2 µM, partner dose 1.4 µM) | 121% | 60.3% | 59% | 112% | 87.6% | 186% | 39% | 54.1% | 147% | 83.8% | 110% | 84.8% | 102% | 150%
O=C(O)[C@@H]1[O][Sb](=[O])([O][Sb]2(=[O])[O][C@H]([C@H](O)CO)[C@H](O)[C@H](C(=O)O)[O]2)[O][C@H]([C@H](O)CO)[C@@H]1O (stereo partly specified) [stibogluconate] + Cn1nnc2c(C(N)=O)ncn2c1=O [temozolomide] (first compound 2 µM, partner dose 2 µM) | 210% | 34.4% | 296% | 100% | 99.5% | 102% | 97.4% | 303% | 85.4% | 121% | 102% | 53.6% | 95.3% | 113%
CS(=O)(=O)CCNCc1ccc(-c2ccc3ncnc(Nc4ccc(OCc5cccc(F)c5)c(Cl)c4)c3c2)o1 [lapatinib] + C=C(c1ccc(C(=O)O)cc1)c1cc2c(cc1C)C(C)(C)CCC2(C)C [Bexarotene] (first compound 0.8 µM, partner dose 2 µM) | 114% | 217% | 73.2% | 34.4% | 101% | 70% | 76.6% | 37.4% | 53.5% | 298% | 89.3% | 85% | 89.8% | 94.8%
O=C(O)[C@@H]1[O][Sb](=[O])([O][Sb]2(=[O])[O][C@H]([C@H](O)CO)[C@H](O)[C@H](C(=O)O)[O]2)[O][C@H]([C@H](O)CO)[C@@H]1O (stereo partly specified) [stibogluconate] + Nc1nc(F)nc2c1ncn2[C@@H]1O[C@H](CO)[C@@H](O)[C@@H]1O [fludarabine] (first compound 2 µM, partner dose 0.2 µM) | 208% | 448% | 241% | 85.4% | 40.6% | 382% | 1170% | 52.3% | 130% | 51.3% | 168% | 256% | 97% | 137%

Record cards (already shown). Order of values: cleaved PARP positive nuclei fraction [1] | cleaved PARP positive nuclei fraction [2] | cleaved PARP positive nuclei fraction [3] | cleaved PARP positive nuclei fraction [4] | cleaved PARP positive nuclei fraction [5] | cleaved PARP positive nuclei fraction [6] | cleaved PARP positive nuclei fraction [7] | cleaved PARP positive nuclei fraction [8] | cleaved PARP positive nuclei fraction [9] | cleaved PARP positive nuclei fraction [10] | cleaved PARP positive nuclei fraction [11] | cleaved PARP positive nuclei fraction [12] | cleaved PARP positive nuclei fraction [13] | cleaved PARP positive nuclei fraction [14]
Cc1cc(Nc2cc(N3CCN(C)CC3)nc(/C=C/c3ccccc3)n2)n[nH]1 + Nc1ccn([C@@H]2O[C@H](CO)[C@@H](O)C2(F)F)c(=O)n1 [gemcitabine] (first compound 0.04 µM, partner dose 0.0004 µM) is listed as 61.9% | 79.8% | 94.6% | 77.5% | 78.3% | 99.3% | 147% | 176% | 87% | 122% | 107% | 27% | 124% | 40.4%
CS(=O)(=O)CCNCc1ccc(-c2ccc3ncnc(Nc4ccc(OCc5cccc(F)c5)c(Cl)c4)c3c2)o1 [lapatinib] + Cn1nnc2c(C(N)=O)ncn2c1=O [temozolomide] (first compound 0.8 µM, partner dose 2 µM) is listed as 53.4% | 452% | 80.7% | 99.2% | 86.3% | 83.2% | 98.6% | 242% | 133% | 590% | 97% | 88.5% | 80.1% | 88.9%
